Results on one substance are retold here after patent US7385029 (dated 2008).

The nature of the series: general procedure: solution-phase peptide synthesis; diethyl cyanophosphate and triethylamine.

On to “N^2-(N,N-dimethyl-L-valyl)-N-[(1S,2R)-2-methoxy-4-[(2S)-2-[(1R,2R)-1-methoxy-2-methyl-3-oxo-3-[(2-phenylethyl)amino]propyl]-1-pyrrolidinyl]-1-[(S)-1-methylpropyl]-4-oxobutyl]-N-methyl-L-valinamide”, for which the “final HPLC purity” value (coupling step) turned out to be 99.2% and the “final HPLC purity” value (late stage modification step) is 99.3%.
